Measurements from PubChem BioAssay AID1794845 (National Center for Advancing Translational Sciences (NCATS), 2023).
The whole screen tested about 6,900 compounds, of which fewer than 10 were called active. The call rests on the fitted dose curve; in most records, active means well fitted curve in the direction sought with a large enough effect; inconclusive means small, poorly fitted or top-dose-only effect, or another doubt; inactive means no such curve, though single readings can be large or run the other way. This is one part of the list.

Sequences of proteins named here, by UniProt entry; tags and fusion partners are left off. A change or cut given only in a name is not applied to a line headed by its entry.
UniProt C7C422: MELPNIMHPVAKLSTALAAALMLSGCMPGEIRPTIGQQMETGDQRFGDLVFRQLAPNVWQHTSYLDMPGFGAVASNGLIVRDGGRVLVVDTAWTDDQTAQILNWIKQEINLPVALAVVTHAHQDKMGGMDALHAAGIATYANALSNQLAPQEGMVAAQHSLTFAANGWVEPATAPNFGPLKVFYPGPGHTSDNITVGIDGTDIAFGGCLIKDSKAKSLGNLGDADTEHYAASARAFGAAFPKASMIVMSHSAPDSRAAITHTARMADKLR

biological target: Metallo-beta-lactamase type 2 (Klebsiella pneumoniae) (UniProt C7C422); test: qHTS to identify inhibitors of the New Delhi Metallo-beta-lactamase (NDM): primary screen against the NCATS Gemini Collection; settings: NDM-1 enzyme, meropenem hydrolysis, absorbance 300 nm; at 38.4 µM (top of the series) unless noted; further: % of control where 0% means no effect
In short: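 Meropenem hydrolysis (50 uM final) by 2 nM NDM-1 read as 300 nm absorbance after 30 min, following >30 min compound–enzyme preincubation in HEPES pH 7.0 with 1 uM ZnSO4 and 0.01% Tween20.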

Activity % (negative = inhibition), inactive:
Cc1c(CN2CCCC23CCN(c2ccc(C(F)(F)F)cn2)CC3)cc(C#N)n1C 0.849%, COc1cccc(CC(=O)N2CC[C@H](CO)[C@H](NC(=O)C3CC3)C2)c1 0.647%, CC(C)n1cc2cc(C(=O)Nc3ccc4c(c3)OCCO4)sc2c1 7.08%, O=C(NCC1CN(C(=O)NC2CCCCC2)CC12CCCCC2)C1CC1 (stereo not drawn) -1.21%, Cn1cc2c3c(cccc31)CN(C(=O)c1ccccc1F)CC2 2.57%, COC[C@]1(O)CCN(C(=O)CSCc2ccccc2C)CC1(C)C 0.871%, NC(=O)CCN1CCc2onc(-c3ccccc3F)c2C1 3.18%, CN1C(=O)COC[C@@H]1[C@H](O)c1ccc(NS(=O)(=O)c2ccc(F)cc2)cc1 59.2% [at 57.5 µM], O=C(NCCCN1CCc2ccccc2C1)C1CCc2ncc(-c3ccc(F)cc3)n2C1 (stereo not drawn) 7.07%, CC(C)c1ccc(CN2CCC(CNS(=O)(=O)C3CC3)C2)cc1 (stereo not drawn) 17.7%, CCc1nc2c(c(-c3ccc(Cl)cc3)n1)CN([S+](C)(=O)[O-])CC2 9.37% [at 57.5 µM], Cc1cccc(C(=O)N2CCC(N3CC4CC(C3)[C@H]3CCCC(=O)N3C4)CC2)c1 (stereo partly drawn) 3.71%, Cn1cc([C@@H](NC(=O)CCc2ccc(=O)[nH]n2)C2CC(O)C2)cn1 (stereo partly drawn) 4.28%, CN(Cc1cnccn1)C(=O)C1CCCN(C2CCN(C(=O)C3CC3)CC2)C1 (stereo not drawn) -16.5%, Cc1nc(C(=O)N2CCn3nc(Cc4ccccc4)cc3C2)cs1 17.3%, O=C1Cc2c(-c3cc4ccccc4o3)n[nH]c2CN1Cc1ccccc1 6.68% [at 57.5 µM], COC(=O)c1sccc1S(=O)(=O)N1CCN2C(=O)CN(C)C(=O)C2C1 (stereo not drawn) 9.99%, Cc1cnc(CC2CCN(S(=O)(=O)c3ccccc3)CC2)n1Cc1ccc(F)cc1 0.311%, O=C(CCCc1ccccc1)Nc1ccc(OC2CCNCC2)nc1 24%, O=C(CCC[C@@H]1[C@H]2CCCN3CCC[C@@H](CN1Cc1cccnc1)[C@@H]23)N1CCN(C2CCCC2)CC1 1.69%, CCOCCn1c(=O)n(C(CC)C(=O)NC(C)(C)C)c2cc(C(=O)O)cnc21 (stereo not drawn) -0.909%, Cc1nc(CNC(=O)[C@H]2CCC[C@@H](O)C2)nc2c1CCCC2 0.0681%, CCc1csc(CNc2cc(C3CC(O)C3)nc(N)n2)n1 (stereo not drawn) -11.2%, CCNC(=O)N[C@H]1CC[C@]2(C)CCC([C@H](C)C(=O)N(C)CCC#N)[C@H](O)[C@H]2[C@@H]1C (stereo partly drawn) -1.35% [at 57.5 µM], CC1=NS(=O)(=O)N(C)C=C1C(=O)OCc1nc(-c2cccc(C)c2)no1 12.3%, CC1(C(=O)NCc2cccnc2)CCCc2cnc(Nc3ccccc3F)nc21 (stereo not drawn) 8.04% [at 57.5 µM], CC(C)(N)C(=O)N1CCN(c2nc(-c3ccccc3)nc3c2CCC3)CC1 21.4%, CCC1(C2CCN(C(=O)CCCc3ccccc3)CC2)NC(=O)N(CCc2scnc2C)C1=O (stereo not drawn) -17.2%, O=C(N[C@@H]1COCC[C@@H]1OCC1CC1)c1cc(-n2cccn2)ccc1Cl -0.841%, Cc1nc(-c2cccnc2)ncc1C(=O)N1CCC2(CC1)CC(=O)N(C)C2 2.42%, O=C(c1ccccc1)N1CC2(CCCN2CC2CC2)Cc2ccccc21 (stereo not drawn) 2.85%, C#CCNC(=O)C[C@@H]1C[C@@H](C(C)C)[C@H](CNS(C)(=O)=O)C=C1C 6.29% [at 57.5 µM], C[C@]1(CO)[C@H]2Cc3sc(-c4ccccc4)nc3[C@@H](CC(=O)N3CCOCC3)[C@]2(C)CC[C@H]1O 10.5%, Cc1ccc(C)c(C(=O)N2CC(c3nnc(-c4ccncc4)o3)C3(CCOCC3)C2)c1 (stereo not drawn) 9.26%, O=C(NCc1nnc2n1C(C(=O)NCc1cccnc1)CC2)c1cccnc1 (stereo not drawn) -0.515%, Nc1nc(C2CC(N)C2)cc(N2CCCN(Cc3cccs3)CC2)n1 (stereo not drawn) 0.493%, CCC1(C(=O)Nc2cc(OC)ccc2OC)CCCCC(=O)N1 (stereo not drawn) 23.1%, COCC1CN(C)CC12CCN(S(=O)(=O)c1cccs1)CC2 (stereo not drawn) 4.6%, CCn1cc(CN2CC(Oc3ccc(-c4noc(-c5cccnc5)n4)cc3)C2)cn1 16.5%, c1ccc(CCCc2noc(-c3ccc(N4CCOCC4)nc3)n2)cc1 23.1%, Cc1nc(N)ncc1C(=O)N(C)Cc1cn[nH]c1-c1ccccc1 -0.485%, Cc1ccc(F)c(OC2(C(=O)O)CCN(S(=O)(=O)c3cnn(C)c3)CC2)c1 1.98%, CN1CC(=O)N(C2CCCCC2)Cc2c(NCCO)ncnc21 28.3% [at 57.5 µM], NC1CCCCN(Cc2ccc(Cl)c(F)c2)C1 (stereo not drawn) -2.71%, COc1ccc2nc([C@H]3CCN(C4CCCCC4)C3)[nH]c2c1 4.41% [at 57.5 µM], O=C(c1cc(F)ccc1F)N1CCCC(Cc2noc(-c3ccccc3)n2)C1 (stereo not drawn) -10.4%, COc1ccc(Nc2cnc3ccc(-c4ccc(F)cc4)nn23)cn1 -0.267% [at 57.5 µM], CC(C)[C@@H]1CN(C(=O)CCCn2cncn2)C[C@H]1NS(=O)(=O)N(C)C 15.5%, Cc1noc(C)c1Cc1ccc(C(=O)N2CC(N(C)Cc3cccnc3)C2)o1 -1.37%, O=C1NC2(CCN(C(=O)c3cccnc3)C2)Oc2ccccc21 (stereo not drawn) 3.52% [at 57.5 µM], O=C(NCCCc1ccccc1)C1CCCCN1Cc1ccc(-c2ccsc2)cc1 (stereo not drawn) 13.5%, COc1cc(OC)cc(-c2onc(C)c2C(=O)NCc2ccccc2C)c1 0.744%, O=C(NC1CCCC1)c1cc(-c2cccc(C(F)(F)F)c2)c2cccn2n1 12.7%, CN(C)C(=O)c1ccc(OC2CCN(C(=O)c3ccc(C(F)(F)F)cc3)CC2)nc1 0.0207%, Cc1cc(CNC(=O)c2cc(C(C)C)n3ncnc3n2)c2[nH]c(C)c(C)c2c1 52.4%, CS(=O)(=O)N(C1CCOCC1)C1CN(C(=O)NCc2ccccc2)C1 -1.83%, CNC(=O)c1cc(C)nc2onc(C3CCN(C(=O)NC4CCCC4)C3)c12 (stereo not drawn) 3.31%, N[C@H]1CCCN(C(=O)c2cnc(C34CC5CC(CC(C5)C3)C4)[nH]c2=O)C1 12%, O=C(NCc1ccccc1)N1CCCC(Cn2cnc3cccnc32)C1 (stereo not drawn) 3.87%, Cc1ccsc1C(=O)C1CCCN(Cc2ccc(OC(C)C)c(CO)c2)C1 (stereo not drawn) 3.84%, O=C(Nc1ccccc1)N1CCC(N2CC3CCCN3C2=O)CC1 (stereo not drawn) 6.28% [at 57.5 µM], O=C(CCc1conc1-c1ccc(F)cc1)NC1CCCCC1 -2.73%, COc1ccc2c(=O)n(CC(=O)N(C)Cc3cc(C)no3)ccc2c1OC 19.3%, Cc1ccc([S+](=O)([O-])N2CCCCC23Cc2ccccc2NC3=O)cc1 (stereo not drawn) 0.244%, N#Cc1cccnc1-c1cccc(C(=O)NCCNC(=O)c2ccccc2)c1 1.91%, COCCN(CCOC)CC[C@@H]1CC[C@H](O)[C@@H](C(=O)NC2CCCCC2)O1 11% [at 57.5 µM], CC(=O)N1CC(CO)C2(CCN(C(=O)c3nccc4ccccc34)CC2)C1 (stereo not drawn) -2.13%, Cc1cc(C)n(CCCN(C)C(=O)C2C3C(=O)N(CCC(C)C)C[C@@]34C=C[C@@H]2O4)n1 (stereo partly drawn) 2.52%, CN(C)C[C@@H]1CN(c2ccncn2)C[C@H]1NC(=O)c1nccc2ccccc12 -0.378%, COCC(=O)Nc1ccc(-c2noc([C@@H]3CCCN3Cc3ncc[nH]3)n2)cn1 13.3% [at 57.5 µM], Fc1ccc(CN2CCn3c(nnc3-c3ccncc3)C2)cc1 -0.0094%, N#Cc1ccc(O[C@@H]2CCOC[C@H]2NC(=O)CN2CCOC2=O)cc1 10.4%, CC(C)CCN1CC[C@@H]2OCC(=O)N(Cc3ccccc3)[C@H]2CC1 4.66% [at 57.5 µM], c1ccc2c(c1)CCN2c1nccnc1OC1CCNC1 (stereo not drawn) 29.6%, O=C(Nc1ccc(F)c(Cl)c1)C1=NO[C@@H]2CN(CCc3ccccc3)C[C@H]12 3.66% [at 57.5 µM], O=C(N[C@H]1C[C@H]2C(=O)NC[C@@H](CCC(=O)N3CCN(c4ccccn4)CC3)N2C1)c1cccs1 -7.77%, COCCN1Cc2[nH]nc(-c3ccsc3)c2CC1=O 1.22% [at 77.1 µM], CC(=O)Nc1ccc(C2(C(=O)NCc3cccs3)CCCCC2)cc1 0.641%
